This is an account of results in paper PMC8948190.

Sequences of proteins named here, by UniProt entry; tags and fusion partners are left off.
UniProt P09874: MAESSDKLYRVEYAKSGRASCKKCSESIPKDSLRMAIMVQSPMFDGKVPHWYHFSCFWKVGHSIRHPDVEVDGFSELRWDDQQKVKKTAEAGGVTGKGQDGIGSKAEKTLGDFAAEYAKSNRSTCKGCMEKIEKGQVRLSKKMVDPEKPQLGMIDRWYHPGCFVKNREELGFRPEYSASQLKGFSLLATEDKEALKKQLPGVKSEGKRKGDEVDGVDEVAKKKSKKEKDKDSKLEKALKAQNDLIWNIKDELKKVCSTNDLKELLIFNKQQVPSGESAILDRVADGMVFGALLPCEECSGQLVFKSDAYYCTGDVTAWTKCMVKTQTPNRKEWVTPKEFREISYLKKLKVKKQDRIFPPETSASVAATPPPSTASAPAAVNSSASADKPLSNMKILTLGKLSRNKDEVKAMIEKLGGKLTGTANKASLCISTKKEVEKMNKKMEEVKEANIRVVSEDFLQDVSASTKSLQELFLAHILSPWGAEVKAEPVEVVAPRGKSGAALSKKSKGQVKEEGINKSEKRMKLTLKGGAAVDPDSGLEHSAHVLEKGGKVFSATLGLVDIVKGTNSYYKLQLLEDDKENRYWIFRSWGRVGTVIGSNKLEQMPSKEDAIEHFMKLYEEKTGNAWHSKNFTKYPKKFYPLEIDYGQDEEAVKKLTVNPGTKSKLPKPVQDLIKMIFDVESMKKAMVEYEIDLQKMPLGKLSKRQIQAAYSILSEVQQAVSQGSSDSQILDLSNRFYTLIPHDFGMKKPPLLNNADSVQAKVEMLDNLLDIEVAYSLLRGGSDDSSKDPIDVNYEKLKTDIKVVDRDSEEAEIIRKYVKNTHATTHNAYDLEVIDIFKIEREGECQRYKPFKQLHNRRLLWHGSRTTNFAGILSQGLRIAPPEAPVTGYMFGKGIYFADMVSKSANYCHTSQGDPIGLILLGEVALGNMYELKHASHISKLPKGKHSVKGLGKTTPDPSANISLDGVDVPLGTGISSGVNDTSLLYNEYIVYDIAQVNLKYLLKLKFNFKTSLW

No constants are given. Whether binding was seen depends on the method and setting. In cells and extracts the contact can be indirect. A yes stands for co-enrichment or nearness to the bait. Other partners may have been found.

This experiment addresses T1, High-mobility group box 3 (HMGB3), endogenous (human (endogenous in A2780, SKOV3, UWB1.289)) (UniProt O15347).
T1 sequence: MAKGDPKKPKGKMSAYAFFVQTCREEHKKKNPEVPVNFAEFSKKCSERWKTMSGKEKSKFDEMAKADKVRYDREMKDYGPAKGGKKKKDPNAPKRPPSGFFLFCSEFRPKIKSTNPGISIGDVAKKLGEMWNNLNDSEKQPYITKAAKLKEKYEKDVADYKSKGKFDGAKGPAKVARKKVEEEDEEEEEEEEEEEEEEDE
Description: affinity purification with mass spectrometry; UWB1.289 lysate (Western and IP Lysis Buffer) immunoprecipitated with anti-HMGB3 or anti-IgG; SDS-PAGE, gel pieces, LC-MS/MS.

For the substance “poly (ADP-ribose) polymerase 1 (PARP1), endogenous (from UniProt P09874 1-1014) (enzyme)”, the binding entry is “binds”.
